Laboratory results from article PMC13168492.
Results are given in words; binding and its absence hold for the method and conditions named. Binding seen in cells or lysates may run through a third protein. Some entries that bind do so weakly or less than the wild type.

The chains behind the UniProt entries cited, without tags or fusion partners.
UniProt P45974: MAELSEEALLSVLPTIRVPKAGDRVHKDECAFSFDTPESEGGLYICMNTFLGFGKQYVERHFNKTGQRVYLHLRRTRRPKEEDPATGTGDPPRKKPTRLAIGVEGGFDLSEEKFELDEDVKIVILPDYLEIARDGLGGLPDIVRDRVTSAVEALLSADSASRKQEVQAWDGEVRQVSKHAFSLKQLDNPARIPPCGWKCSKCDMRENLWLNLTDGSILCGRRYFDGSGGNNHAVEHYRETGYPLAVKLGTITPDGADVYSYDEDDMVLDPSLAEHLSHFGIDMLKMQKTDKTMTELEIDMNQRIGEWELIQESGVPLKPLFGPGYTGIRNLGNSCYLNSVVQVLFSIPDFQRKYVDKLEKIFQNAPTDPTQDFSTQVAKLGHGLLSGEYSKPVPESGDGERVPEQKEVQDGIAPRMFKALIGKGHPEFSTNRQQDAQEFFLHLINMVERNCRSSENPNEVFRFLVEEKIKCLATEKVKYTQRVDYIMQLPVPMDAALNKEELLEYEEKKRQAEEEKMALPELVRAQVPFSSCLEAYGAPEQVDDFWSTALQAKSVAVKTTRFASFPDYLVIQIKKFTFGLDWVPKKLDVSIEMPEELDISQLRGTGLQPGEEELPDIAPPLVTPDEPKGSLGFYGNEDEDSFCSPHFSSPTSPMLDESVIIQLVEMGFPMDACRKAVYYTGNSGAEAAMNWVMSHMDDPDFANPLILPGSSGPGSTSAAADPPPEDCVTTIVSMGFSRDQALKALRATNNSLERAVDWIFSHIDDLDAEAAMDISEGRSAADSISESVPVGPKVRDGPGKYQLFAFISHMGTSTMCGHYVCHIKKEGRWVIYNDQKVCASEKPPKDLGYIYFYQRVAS

What was measured:
[1] = molecular target: ubiquitin-specific protease 5 (USP5), endogenous (human (endogenous in KYSE450 and KYSE30)) (UniProt P45974); assay: co-IP; endogenous IP: RIPA lysate shaken with the indicated antibody (1 uL) and protein A/G beads (60 uL) at 4 °C overnight, five washes with NET-NW buffer, Western blot
Flag-USP5 = Flag-USP5 (UniProt P45974); assay: co-IP; external (exogenous) IP: RIPA lysate of transfected cells with tag beads (30 uL) in NET-NW buffer, five washes with NET-NW buffer, Western blot
Myc-IMPDH2 = Myc-IMPDH2 (UniProt P12268); assay: as above
[2] = molecular target: inosine monophosphate dehydrogenase 2 (IMPDH2), endogenous (human (endogenous in KYSE450, KYSE30 and KYSE150)) (UniProt P12268); assay: co-IP; endogenous IP: RIPA lysate shaken with the indicated antibody (1 uL) and protein A/G beads (60 uL) at 4 °C overnight, five washes with NET-NW buffer, Western blot

With “inosine monophosphate dehydrogenase 2 (IMPDH2), endogenous (from UniProt P12268 1-514) (enzyme)” the binding [1] was “binds”.
For “Myc-IMPDH2 (from UniProt P12268 1-514) (enzyme)”, the binding (Flag-USP5) was “binds”.
“Flag-SYVN1 (from UniProt Q86TM6 1-617) (enzyme)” was tested, and the binding (Myc-IMPDH2) was “binds”.
For “E3 ligase SYVN1, endogenous (from UniProt Q86TM6 1-617) (enzyme)”, the binding [2] was “binds”.
